Source: PubChem BioAssay AID493014 (National Center for Advancing Translational Sciences (NCATS), 2011)
The campaign covered roughly 340,000 compounds. About 170 (0.05%) were called active. This list was built around the results that the source calls inconclusive (neither active nor inactive); the mix of calls is not that of the screen. Calls come from the whole dose curve; as a rule, active = well fitted inhibition curve with a large enough effect in the signal ratio, with a control signal flat (not every such curve was filed as active); inconclusive = small, poorly fitted or top-dose-only effect, or effect the other way, or a change in a side signal; inactive = flat fitted curve, though single readings scatter; the % refers to the signal ratio. Potencies of inconclusive entries are doubtful fits and often do not repeat.

assay: qHTS Assay to Find Inhibitors of Chronic Active B-Cell Receptor Signaling; settings: ABC-DLBCL IkBa-CBG/CBR reporter, luminescence ratio (green luciferase fused to IkBa over red control in TMD8 lymphoma cells), 4 h; activity change, negative = inhibition: at 46.1 µM (top of the series);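 for activity change, negative = inhibition: plate controls were basal doxycycline-induced cells for no effect and cells given 10 µM MG132 for full effect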
Outline: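 Compounds up to 46 uM were incubated four hours with TMD8 cells whose green CBG68 luciferase is fused to IkappaBalpha; red CBR luminescence normalised the signal, and concentration-effect curves were fitted to fusion, red and ratio data.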
Potency is the fitted concentration of half-maximal effect.

Compound	activity change, negative = inhibition	Potency
Cc1cc(=O)[nH]c(SCC(=O)Nc2nnc(SCc3ccccc3)s2)n1	inconclusive: -8.61%	
CCOC(=O)NC(c1cccc(Cl)c1)C1CCCCCC1=O (stereo not drawn)	inconclusive: 25.2%	
NC(=O)c1ccc(NC(=O)COC(=O)CCC(=O)c2ccc(Cl)cc2)cc1	inactive: 2.02%	
Cc1cc(=O)[nH]c(SCC(=O)Nc2ccc3c(c2)OCCO3)n1	inconclusive: -3.83%	
COc1ccc(/C=C2/Sc3ccc(C(=O)NCCCN4CCOCC4)cc3NC2=O)cc1OC	inconclusive: 8.59%	
O=C(COc1ccc(Br)cc1Cl)NC(=S)Nc1ccccn1	inconclusive: 0.526%	
CC1=Nc2nc(N3CCCCC3)c(C#N)c3c4c(nc(c23)N1)N(c1ccc(C(C)C)cc1)C(=O)C4	inconclusive: 16.6%	
COc1ccc(CCCC(=O)NCc2ccccc2)cc1C	inconclusive: -4.6%	
O=C(CSc1ccc(F)cc1)N1CCN(S(=O)(=O)c2ccccc2)CC1	inactive: 2.72%	
Cc1cccc(C)c1OCC(=O)NNC(=O)CNC(=O)c1ccc(OC(F)F)cc1	inconclusive: 3.05%	
COc1ccc2nc(C)cc(N/N=C/c3cccc(OC)c3O)c2c1	inconclusive: 8.1%	
COC(=O)c1ccc(OCC2c3cc(OC)c(OC)cc3CCN2C(=O)c2ccc(F)cc2)cc1 (stereo not drawn)	inactive: -14.6%	
O=C(Cn1ccc(NC(=O)OCc2ccccc2)nc1=O)NCc1ccccn1	inconclusive: 2.75%	
O=C(C1=NN[C@@H]2C(=O)N(c3cccc(F)c3)C(=O)[C@H]12)c1cnccn1	inconclusive: -11.3%	
COc1cccc(NC(=O)CS(=O)(=O)c2cn(CC(=O)N3CCOCC3)c3ccccc23)c1		inconclusive: 22.4 µM [falling, partial curve, poor fit]
Cc1ccc(NC(=O)c2cc(-c3ccccc3O)n[nH]2)cc1Cl	inconclusive: -15.5%	
Cc1nc(NCc2ccccn2)c2c3c(sc2n1)CCCC3	inactive: -2.55%	
O=C(Cn1c(=O)oc2ccccc21)Nc1ccc(F)c(F)c1	inconclusive: -20.9%	
COc1cc(C(=O)N/N=C(\C)c2ccccn2)cc(OC)c1OC	inconclusive: 4.16%	
CCCCNc1nc(Nc2ccc(C)c(Cl)c2)c2cnn(C)c2n1	inconclusive: 3.91%	
O=C(NCc1ccccn1)c1cc2ccccc2oc1=O		inconclusive: 29.1 µM [falling, single point]
CCn1nc(NC(=O)C(C)C)c2cc3ccc(C)cc3nc21	inactive: 1.7%	
Cc1cc(C)nc(SSc2nc(C)cc(C)n2)n1		inconclusive: 35.5 µM [falling, single point]
O=C(COC(=O)c1n[nH]c(=O)c2ccccc12)NCc1ccccc1	inconclusive: -0.0661%	
COC(=O)c1nccnc1C(=O)Nc1ccccc1N1CCOCC1	inactive: 6.14%	
CC(=O)c1ccc(OCCCC(=O)N2CCN(S(=O)(=O)c3cc(C)ccc3C)CC2)cc1	inactive: -2.48%	
Cc1nn(-c2ccccc2)c(C)c1/C=N/NC(=O)c1cc(-c2ccccc2)n[nH]1		inconclusive: 20.6 µM [cytotoxic, partial curve]

Compound	activity change, negative = inhibition	Potency
Cc1[nH]c2ccccc2c1-c1nc2ccccc2[nH]c1=O	inactive: -16.9%	
O=C1/C(=C/c2ccccc2[N+](=O)[O-])COc2ccccc21	inconclusive: 7.17%	
O=C(COc1ccc2ccccc2c1Br)NC(=S)Nc1cccc(CO)c1	inconclusive: 6.11%	
O=C(NCC(=O)N(Cc1ccco1)C(C(=O)NC1CCCCC1)c1cccnc1)c1cccs1 (stereo not drawn)	inconclusive: -2.09%	
COc1ccccc1CCC(=O)NNC(=O)c1ccccc1		inconclusive: 25.1 µM [falling, partial curve]
COC(=O)c1ccccc1NC(=O)Cn1c(-c2nonc2N)nc2ccccc21		inconclusive: 2.59 µM [falling, full curve, poor fit]
c1ccc(-c2n[nH]c3c2CCC3)cc1	inactive: -2.92%	
C=C1CCC[C@]2(C)C[C@H]3OC(=O)C(CNCCN(C)C)[C@H]3CC12 (stereo partly drawn)		inconclusive: 35.5 µM [falling, partial curve, poor fit]
CN1C(=O)C(O)(CC(=O)/C=C/C=C/c2ccccc2)c2ccccc21 (stereo not drawn)		inconclusive: 32.6 µM [falling, partial curve, poor fit]
CN(C)CCC1Sc2ccccc2Oc2ccccc21 (stereo not drawn)	inconclusive: -13.3%	
Cc1nc(-c2cc(C#N)c(Sc3ccc(Cl)cc3Cl)nc2C)cs1	inconclusive: -8.53%	
CCc1ccc(N2CC(C(=O)OC)CC2=O)cc1 (stereo not drawn)	inconclusive: 1.64%	
CCCC1Nc2ccc(C(=O)O)cc2C2C=CCC12 (stereo not drawn)	inconclusive: -0.219%	
O=C(NC(=S)Nc1cccc(S(=O)(=O)NC2=NCCC2)c1)c1cc(-c2ccco2)nc2ccccc12		inconclusive: 6.31 µM [falling, single point]
CC(C)=NOC(=O)c1ccc(-c2ccccc2)cc1	inconclusive: 9.57%	
Cc1cc(SCC(=O)Nc2ccccc2)n2ncc(-c3ccccc3)c2n1	inconclusive: -1.79%	
CCOC(=O)C1CCN(C(=O)Nc2ccc3snnc3c2)CC1	inactive: 0.267%	
Cn1cc(Cl)c(C(=O)NNC(=S)NCc2ccco2)n1	inactive: 0.327%	
CCC1(CC)C(=O)C(C)(C)C(=O)OC1c1cccs1 (stereo not drawn)	inactive: -0.849%	
CC(Oc1ccc(F)cc1)C(=O)Nc1cccc(-c2nn[nH]n2)c1 (stereo not drawn)	inactive: -0.279%	
O=S(=O)(c1cccs1)N1CCN(Cc2ccccc2)CC1	inconclusive: -0.425%	
O=C(NCc1ccccn1)/C(=N/O)c1ccccc1		inconclusive: 20 µM [falling, single point]
COCCn1nnnc1C(C(C)C)N(Cc1cccnc1)Cc1cc2cc(OC)ccc2[nH]c1=O (stereo not drawn)	inactive: -14.3%	
COc1cc2c(=O)n(CC3CCCO3)c(=O)n(CC(=O)Nc3cccc(Cl)c3)c2cc1OC (stereo not drawn)		inconclusive: 2.06 µM [falling, full curve, poor fit]
O=S(=O)(Nc1ncccn1)c1ccc(NS(=O)(=O)c2cc(Cl)ccc2Cl)cc1	inconclusive: 13.2%	
c1cc2c(cc1C1=NNC(=NC3CC3)SC1)OCCO2		inconclusive: 31.6 µM [cytotoxic, single point]

Four compounds from above, arranged by heavy-atom count, smallest number first:
Compound	activity change, negative = inhibition	Potency
CCc1ccc(N2CC(C(=O)OC)CC2=O)cc1 (stereo not drawn)	inconclusive: 1.64%	
CN(C)CCC1Sc2ccccc2Oc2ccccc21 (stereo not drawn)	inconclusive: -13.3%	
O=S(=O)(c1cccs1)N1CCN(Cc2ccccc2)CC1	inconclusive: -0.425%	
O=C(COc1ccc2ccccc2c1Br)NC(=S)Nc1cccc(CO)c1	inconclusive: 6.11%	
